Measured values reported in PubChem BioAssay AID2685 (National Center for Advancing Translational Sciences (NCATS), 2010).
This is one part of the list. Shown are side measurements of this screen, not its main read-out; they come without a call. The list favours compounds with an active or inconclusive main result. Potencies come from curve fits of mixed quality, noted in brackets.

Assay: qHTS Assay for Lipid Storage Modulators in Drosophila S3 Cells;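 on cell number change: cells counted by Cell Tracker Red CMTPX staining in the red channel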
Settings: BODIPY lipid droplet fluorescence, 18-24 h; for cell number change: measured here: cell count max response, cells fed with added oleic acid
Procedure, shortened: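 Laser-scanning cytometry quantifies lipid droplet accumulation (500–530 nm total intensity; droplet/cell object ratio) in oleic acid-fed (400 uM added) Drosophila S3 cells treated with a concentration series. 20 uM Triacsin C defined 100% inhibition.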

[1] = measured here: cell number channel AC50, cells fed with added oleic acid
[2] = measured here: lipid fluorescence (Fed channel) AC50, cells fed with added oleic acid

Compound	cell number change	AC50 [1]	AC50 [2]
O=Nc1c(O)n(Cc2c(Cl)cccc2Cl)c2ccccc12	-41.3%	16.4 µM [falling, partial curve, poor fit]	0.0651 µM [falling, full curve, poor fit]
CCc1ccc(NC(=O)Cn2nc(C)n3cccc3c2=O)cc1	-3.24%	–	0.517 µM [rising, single point]
CCOc1cc2c(cc1/C=C/c1noc(C)c1[N+](=O)[O-])OC(C)C2 (stereo unspecified)	115%	4.11 µM [rising, partial curve]	0.58 µM [falling, single point]
CCN1C(=O)[C@H]2[C@@H](c3ccc(-c4ccc(Cl)c(Cl)c4)cc3)N[C@@](C)(C(=O)OC)[C@H]2C1=O	-15.7%	–	1.64 µM [falling, partial curve]
CCOC(=O)N1CCN(C(=O)CSc2ccc3nnc(-c4cccnc4)n3n2)CC1	-85.2%	–	–
CC(=O)/C(=N/Nc1cccc(C)c1)N1CCOCC1	16.3%	–	1.16 µM [rising, partial curve]
Cc1cc(COc2ccccc2O)on1	-69.8%	14.6 µM [falling, partial curve]	–
CC(OC(=O)COc1cccc2c1OC(C)(C)C2)C(=O)Nc1ccc(S(N)(=O)=O)cc1 (stereo unspecified)	-10%	–	–
C=C(C)Cn1c(N2CCN(CC)CC2)nc2c1c(=O)[nH]c(=O)n2C	8.89%	–	1.84 µM [falling, partial curve, poor fit]
CC(=O)Nc1cccc(O)c1	20.2%	–	3.66 µM [falling, single point]
Cc1ccccc1OCC(=O)Nc1ccc(S(=O)(=O)Nc2onc(C)c2C)cc1	23.9%	1.46 µM [rising, partial curve, poor fit]	–
Cc1cccc(/C=N/n2c(COc3ccccc3)n[nH]c2=S)c1	-46.1%	9.2 µM [falling, partial curve]	7.31 µM [falling, partial curve]
O=C(NC1CCCC1)C(c1ccncc1)N(C(=O)Cc1cccs1)c1ccccc1 (stereo unspecified)	-34.1%	0.92 µM [falling, full curve]	1.16 µM [falling, single point]
Cc1ccc(NC(=O)c2ccccn2)c(Br)c1	24.3%	–	23.1 µM [rising, single point]
O=C(COC(=O)c1ccc(S(=O)(=O)N2CCCCC2)cc1)Nc1ccccc1Cl	–	–	2.06 µM [falling, partial curve, poor fit]
C/C(Cn1cnc([N+](=O)[O-])n1)=N\NC(=O)c1ccc(F)cc1	32.4%	0.058 µM [rising, partial curve, poor fit]	23.1 µM [rising, single point]
CC1(C)CC2CC(C)(CN2S(=O)(=O)c2cccc(N)c2)C1 (stereo unspecified)	-32.2%	16.4 µM [falling, single point]	29.1 µM [falling, single point]
CC(Sc1ccc(Cl)cc1)C(=O)Nc1ccccc1C(=O)N1CCOCC1 (stereo unspecified)	13.1%	–	0.13 µM [falling, full curve]
CN1CCN(c2nc3c(c(=O)[nH]c(=O)n3C)n2CCCSc2nnnn2-c2ccccc2)CC1	-51.7%	29.1 µM [falling, partial curve, poor fit]	–
COCC(=O)NCCc1ccc(S(N)(=O)=O)cc1	2.04%	–	6.51 µM [rising, single point]

Given with bars between the fields: part of the list above
Compound | cell number change | AC50 [1] | AC50 [2]
CC(=O)/C(=N/Nc1cccc(C)c1)N1CCOCC1 | 16.3% | – | 1.16 µM [rising, partial curve]
Cc1cc(COc2ccccc2O)on1 | -69.8% | 14.6 µM [falling, partial curve] | –
CC(OC(=O)COc1cccc2c1OC(C)(C)C2)C(=O)Nc1ccc(S(N)(=O)=O)cc1 (stereo unspecified) | -10% | – | –
C=C(C)Cn1c(N2CCN(CC)CC2)nc2c1c(=O)[nH]c(=O)n2C | 8.89% | – | 1.84 µM [falling, partial curve, poor fit]
CC(=O)Nc1cccc(O)c1 | 20.2% | – | 3.66 µM [falling, single point]
Cc1ccccc1OCC(=O)Nc1ccc(S(=O)(=O)Nc2onc(C)c2C)cc1 | 23.9% | 1.46 µM [rising, partial curve, poor fit] | –
Cc1cccc(/C=N/n2c(COc3ccccc3)n[nH]c2=S)c1 | -46.1% | 9.2 µM [falling, partial curve] | 7.31 µM [falling, partial curve]
O=C(NC1CCCC1)C(c1ccncc1)N(C(=O)Cc1cccs1)c1ccccc1 (stereo unspecified) | -34.1% | 0.92 µM [falling, full curve] | 1.16 µM [falling, single point]
Cc1ccc(NC(=O)c2ccccn2)c(Br)c1 | 24.3% | – | 23.1 µM [rising, single point]
O=C(COC(=O)c1ccc(S(=O)(=O)N2CCCCC2)cc1)Nc1ccccc1Cl | – | – | 2.06 µM [falling, partial curve, poor fit]
C/C(Cn1cnc([N+](=O)[O-])n1)=N\NC(=O)c1ccc(F)cc1 | 32.4% | 0.058 µM [rising, partial curve, poor fit] | 23.1 µM [rising, single point]
CC1(C)CC2CC(C)(CN2S(=O)(=O)c2cccc(N)c2)C1 (stereo unspecified) | -32.2% | 16.4 µM [falling, single point] | 29.1 µM [falling, single point]

Remaining list, next part:

Compound	cell number change	AC50 [1]	AC50 [2]
CC1(C)CC(=O)NC=C(c2ccccc2)C1	4.68%	–	2.06 µM [falling, partial curve, poor fit]
O=C(Nc1cccnc1Cl)c1cc(-c2ccc(Br)cc2)on1	3.42%	–	29.1 µM [rising, single point]
Cc1cc(Br)ccc1NC(=O)c1sc2ncn(CC(=O)N3CCN(c4ccccn4)CC3)c(=O)c2c1C	32.3%	–	23.1 µM [falling, single point]
O=C1NC(c2cccc(Cl)c2)Nc2ccccc21 (stereo unspecified)	0.289%	–	6.51 µM [rising, single point]
O=C(NCc1ccc(F)cc1)c1cccs1	-25.4%	–	–
Cc1cc(C)n2[nH]c(=O)c(N=Nc3cccc(C(F)(F)F)c3)c2n1	-2.09%	–	29.1 µM [falling, single point]
Cc1ccc(C(=O)OCc2cc3ccccc3[nH]c2=O)cc1	-21.7%	–	4.61 µM [rising, single point]
COc1ccc2nc(NC(=O)CSc3n[nH]c(N)n3)sc2c1	-17.9%	–	2.06 µM [rising, partial curve]
CCOC(=O)C1C(c2cccs2)NC(=O)NC1(O)C(F)(F)F (stereo unspecified)	-26.5%	–	29.1 µM [falling, single point]
CC(=O)Nc1ccc(S(=O)(=O)NCCc2c[nH]c3ccc(C)cc23)cc1	-21.8%	–	18.4 µM [rising, partial curve]
CCCN1CCOC(CC(=O)Nc2ccc([N+](=O)[O-])cc2)C1=O (stereo unspecified)	–	–	0.58 µM [rising, single point]
Cc1ccc(COC(=O)c2cc(S(=O)(=O)N3CCOCC3)ccc2C)cc1	1.22%	–	0.259 µM [falling, full curve]
CCOc1ccccc1NC(=S)Nc1ccc2cn[nH]c2c1	5.27%	–	3.26 µM [rising, full curve, poor fit]
Cc1ccc(N2C(S)=C(C#N)C(=O)NC2c2ccco2)cc1 (stereo unspecified)	-22.1%	–	–
CN(C)CC(C)(C)CNC(=O)CC1C(=O)NCCN1Cc1ccc(-c2ccccc2)cc1 (stereo unspecified)	7.52%	–	–
Cc1cccc(N2CCN(C(=O)C(C)n3nc(C)n4c(cc5occc54)c3=O)CC2)c1C (stereo unspecified)	-26.2%	–	–
CC(=O)Nc1ccc(C(=O)NCCc2ccccc2)cc1	55.5%	25.9 µM [rising, single point]	23.1 µM [rising, partial curve]
COc1cc(/C=C2\SC(=S)N(NC(=O)c3ccccc3OC)C2=O)ccc1O	-88.7%	–	5.8 µM [falling, full curve]
O=C(C1COc2ccccc2O1)N1CCN(c2ccccc2Cl)CC1 (stereo unspecified)	22.3%	–	–
